Among the data in US6794147 (Pfizer, dated 2004) are binding values, retold here.

Amino acid sequences for entries named in this document (tags omitted). A change or cut given only in a name is not applied to a line headed by its entry.
UniProt P04386: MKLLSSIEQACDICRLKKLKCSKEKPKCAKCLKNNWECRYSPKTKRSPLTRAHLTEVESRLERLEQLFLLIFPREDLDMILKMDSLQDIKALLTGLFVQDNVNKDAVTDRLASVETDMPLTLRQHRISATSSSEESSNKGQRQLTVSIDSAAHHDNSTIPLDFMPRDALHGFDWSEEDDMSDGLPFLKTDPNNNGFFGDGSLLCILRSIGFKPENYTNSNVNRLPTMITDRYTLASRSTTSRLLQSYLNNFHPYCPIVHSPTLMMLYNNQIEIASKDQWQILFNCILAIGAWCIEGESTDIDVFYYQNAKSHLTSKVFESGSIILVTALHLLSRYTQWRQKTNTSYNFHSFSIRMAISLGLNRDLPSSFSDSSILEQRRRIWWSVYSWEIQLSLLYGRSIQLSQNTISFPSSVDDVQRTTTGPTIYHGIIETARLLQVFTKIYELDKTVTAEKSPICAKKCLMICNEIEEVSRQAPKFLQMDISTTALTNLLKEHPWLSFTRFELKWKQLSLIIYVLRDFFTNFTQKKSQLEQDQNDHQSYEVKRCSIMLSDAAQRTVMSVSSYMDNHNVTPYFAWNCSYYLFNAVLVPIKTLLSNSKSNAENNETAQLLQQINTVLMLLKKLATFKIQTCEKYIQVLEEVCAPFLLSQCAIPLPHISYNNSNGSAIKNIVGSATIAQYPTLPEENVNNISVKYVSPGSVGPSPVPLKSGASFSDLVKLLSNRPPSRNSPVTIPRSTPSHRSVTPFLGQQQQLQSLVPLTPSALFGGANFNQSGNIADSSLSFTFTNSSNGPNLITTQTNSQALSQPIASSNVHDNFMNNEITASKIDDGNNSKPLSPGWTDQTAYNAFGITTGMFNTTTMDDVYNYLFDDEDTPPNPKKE

The target in assay [1] is T1, human MSH5 in the GAL4 activation domain vector (AD) (human) (UniProt O43196).
T1 sequence (looked up): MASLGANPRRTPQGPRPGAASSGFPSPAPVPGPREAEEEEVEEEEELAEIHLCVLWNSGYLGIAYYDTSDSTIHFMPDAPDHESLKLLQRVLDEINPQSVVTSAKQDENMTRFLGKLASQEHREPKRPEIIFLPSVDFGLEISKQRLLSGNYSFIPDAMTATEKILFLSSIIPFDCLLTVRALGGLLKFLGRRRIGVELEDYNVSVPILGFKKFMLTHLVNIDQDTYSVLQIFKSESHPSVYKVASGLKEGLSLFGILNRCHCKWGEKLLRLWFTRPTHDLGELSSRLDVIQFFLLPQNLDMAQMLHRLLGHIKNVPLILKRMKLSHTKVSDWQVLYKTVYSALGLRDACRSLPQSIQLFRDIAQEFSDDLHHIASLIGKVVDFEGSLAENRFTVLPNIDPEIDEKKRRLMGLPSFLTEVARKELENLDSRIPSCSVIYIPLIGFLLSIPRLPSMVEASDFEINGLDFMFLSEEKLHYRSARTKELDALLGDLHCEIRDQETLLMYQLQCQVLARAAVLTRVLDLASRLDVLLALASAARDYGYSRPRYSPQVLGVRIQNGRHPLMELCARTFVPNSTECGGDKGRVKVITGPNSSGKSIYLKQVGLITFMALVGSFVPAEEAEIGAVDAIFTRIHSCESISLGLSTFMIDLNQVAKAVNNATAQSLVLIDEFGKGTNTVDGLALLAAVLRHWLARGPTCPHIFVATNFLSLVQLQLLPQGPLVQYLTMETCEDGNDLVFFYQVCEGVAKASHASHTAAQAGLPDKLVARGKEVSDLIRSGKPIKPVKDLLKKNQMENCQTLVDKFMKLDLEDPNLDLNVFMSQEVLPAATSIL
The assay can be described thus: yeast two-hybrid assay, GAL4UAS-β-galactosidase reporter.

The target of assay [2] is T1, human MSH5 in the GAL4 activation domain vector (AD) (human). The assay can be described thus: yeast two-hybrid assay.
The target in assay [3] is T2, mouse MSH4 (endogenous, mouse testicular lysates) (mouse) (UniProt Q99MT2).
T2 sequence (looked up): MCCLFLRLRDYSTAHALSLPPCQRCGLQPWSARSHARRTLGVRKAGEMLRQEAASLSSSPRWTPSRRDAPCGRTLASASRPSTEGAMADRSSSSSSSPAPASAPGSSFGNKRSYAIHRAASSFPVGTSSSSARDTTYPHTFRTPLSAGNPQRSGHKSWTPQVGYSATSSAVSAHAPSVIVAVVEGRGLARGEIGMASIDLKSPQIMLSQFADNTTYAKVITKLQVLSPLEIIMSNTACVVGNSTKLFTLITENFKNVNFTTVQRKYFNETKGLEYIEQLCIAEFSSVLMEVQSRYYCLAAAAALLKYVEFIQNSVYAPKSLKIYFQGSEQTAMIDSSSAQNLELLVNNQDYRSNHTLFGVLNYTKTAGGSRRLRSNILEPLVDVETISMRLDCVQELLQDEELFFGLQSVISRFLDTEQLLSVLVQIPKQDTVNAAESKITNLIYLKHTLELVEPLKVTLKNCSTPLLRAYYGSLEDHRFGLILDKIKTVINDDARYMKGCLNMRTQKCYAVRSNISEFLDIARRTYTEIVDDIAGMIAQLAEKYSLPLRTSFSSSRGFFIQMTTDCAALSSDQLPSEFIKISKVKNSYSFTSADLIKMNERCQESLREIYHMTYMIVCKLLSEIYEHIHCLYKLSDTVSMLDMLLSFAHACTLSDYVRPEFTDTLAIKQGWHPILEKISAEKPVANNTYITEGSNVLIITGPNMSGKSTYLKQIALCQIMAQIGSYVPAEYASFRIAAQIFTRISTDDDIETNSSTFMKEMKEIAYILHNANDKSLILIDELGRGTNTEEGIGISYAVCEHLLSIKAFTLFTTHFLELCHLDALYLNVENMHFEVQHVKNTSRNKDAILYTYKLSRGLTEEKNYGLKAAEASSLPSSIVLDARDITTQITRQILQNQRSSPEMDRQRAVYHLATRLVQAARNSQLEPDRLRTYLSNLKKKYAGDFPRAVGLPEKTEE
The assay can be described thus: reciprocal co-immunoprecipitation from mouse testicular lysates.

The target of assay [4] is T3, mouse MSH5 (endogenous, mouse testicular lysates) (mouse) (UniProt Q9QUM7).
T3 sequence (looked up): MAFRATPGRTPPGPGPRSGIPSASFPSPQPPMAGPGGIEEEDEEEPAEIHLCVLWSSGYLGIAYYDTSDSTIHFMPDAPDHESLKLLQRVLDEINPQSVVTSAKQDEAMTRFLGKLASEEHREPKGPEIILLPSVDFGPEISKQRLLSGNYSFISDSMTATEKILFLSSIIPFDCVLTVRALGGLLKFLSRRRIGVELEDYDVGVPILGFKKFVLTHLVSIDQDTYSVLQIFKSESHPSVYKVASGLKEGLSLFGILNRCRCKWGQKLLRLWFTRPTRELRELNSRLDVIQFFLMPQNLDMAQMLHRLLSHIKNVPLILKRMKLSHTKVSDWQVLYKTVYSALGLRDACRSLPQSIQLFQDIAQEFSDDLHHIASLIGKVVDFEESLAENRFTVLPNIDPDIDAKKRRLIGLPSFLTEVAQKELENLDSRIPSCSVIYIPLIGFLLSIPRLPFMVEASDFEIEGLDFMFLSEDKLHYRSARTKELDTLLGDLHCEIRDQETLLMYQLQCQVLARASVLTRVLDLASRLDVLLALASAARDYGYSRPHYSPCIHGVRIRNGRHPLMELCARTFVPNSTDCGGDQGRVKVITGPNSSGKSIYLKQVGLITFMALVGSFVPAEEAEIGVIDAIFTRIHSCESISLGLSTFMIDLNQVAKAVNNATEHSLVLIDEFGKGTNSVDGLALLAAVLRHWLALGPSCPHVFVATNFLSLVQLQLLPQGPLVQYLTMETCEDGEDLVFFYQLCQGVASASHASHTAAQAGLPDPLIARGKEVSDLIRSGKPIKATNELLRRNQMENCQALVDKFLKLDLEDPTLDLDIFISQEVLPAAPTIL
In words: co-immunoprecipitation from mouse testicular lysates (IP anti-MSH4, blot anti-MSH5).

No constants are given. Whether binding was seen depends on the method and setting. For some of these results: In cells and extracts the contact can be indirect. Some entries that bind do so weakly or less than the wild type. For some of these results: Tags and fused reporters may be left off the sequences shown.

Regarding “human MSH4 in the GAL4 DNA-binding domain vector (DBD) (from UniProt P04386 1-147; O15457 1-936)”, the binding entry in assay [1] and in assay [2] was “binds” in each case.

B1: mouse MSH5 (endogenous, mouse testicular lysates) (protein, UniProt Q9QUM7 1-833, looked up)
chain: T3 sequence (looked up)
Regarding B1, the binding entry in assay [3] is given as “binds”.

B2: mouse MSH4 (endogenous, mouse testicular lysates) (protein, UniProt Q99MT2 1-958, looked up)
chain: T2 sequence (looked up)
As to B2, the binding result in assay [4] is “binds”.
